Measured values from PubChem BioAssay AID588497 (NMMLSC, 2011).
The campaign covered roughly 360,000 compounds. About 780 (0.22%) were called active. This list was built around the results that the source calls inconclusive (neither active nor inactive); the mix of calls is not that of the screen. Rule as the data show it: active = inhibition above about 35% (passing the limit was not always enough); inconclusive = no clear call, values can overlap the other calls.

Tested on: Botulinum neurotoxin type F light chain protease (Clostridium botulinum)
Assay: BoNT/F light chain protease inhibitors, primary screen, biochemical, flow cytometry, MLPCN library (AID 588497); also: plate controls were buffer without enzyme for full effect and enzyme alone for no effect
Settings: Multiplex microsphere protease cleavage assay, at 10 µM, active compounds read high

SMILES | inhibition
FC(F)(F)c1cccc(CON=C2CCN(c3ncc(C(F)(F)F)cc3Cl)CC2)c1 | inactive: -1.1%
O=C(Nc1cccc(S(=O)(=O)NC2=NCCC2)c1)c1cc(=O)[nH]c2ccccc12 | inconclusive: -4.9%
O=C(N/N=C/c1cccs1)c1cc(-c2ccncc2)nc2ccccc12 | inactive: 2.2%
O=C(O)c1ccc(-c2ccc(Cl)cc2Cl)o1 | inactive: 23.9%
CCCC1c2ccsc2CCN1C(=S)NC (stereo unspecified) | inconclusive: -55.3%
COc1ccc(-n2ccc3ccccc32)cc1 | inconclusive: 13.7%
C/C(CCc1ccc2c(c1)OCO2)=N\NC(=O)c1ccccc1 | inactive: -3.2%
CC1=NCC(C)c2ccccc21 (stereo unspecified) | inconclusive: 32.3%
Cc1cc(C(=O)N/N=C/c2ccco2)n[nH]1 | inactive: -3%
O=C(CN1C(=O)c2ccccc2S1(=O)=O)Nc1ncccn1 | inconclusive: -4.4%
COC(=O)Cn1c(=NC(=O)CSCC(=O)NC2CCCCC2)sc2cc(OC)ccc21 | inactive: 14%
COc1ccc(S(=O)(=O)N2CCCCC2)cc1NC(=O)CSc1nnc(C2CC2)n1C | inactive: -8.1%
CCNc1nc2cccnc2s1 | inconclusive: -36.7%
CC(C)N1CC(C(=O)Nc2ccc(F)c(Cl)c2)CC1=O (stereo unspecified) | inconclusive: -2.3%
CC(C)(C)N1C(=O)c2ccccc2NC(=O)N1Cc1ccccc1 | inconclusive: -62.1%
CSc1nsc(SC)c1C(=O)NC(=O)Nc1cccnc1 | inconclusive: -2%
O=C(NC12CC3CC(CC(C3)C1)C2)c1ccc(N2CCNCC2)c([N+](=O)[O-])c1 | inconclusive: 99%
Cc1ccc(OCC(=O)NCc2ccccn2)c(Br)c1 | inconclusive: -7.7%
Cc1nc2nc(CSc3ccc(Cl)cc3)cc(=O)n2[nH]1 | active: 79.4%
CC(=O)c1ccc(S(=O)(=O)Nc2ccc(-n3c(C)nc4ccccc4c3=O)cc2)cc1 | inconclusive: -8.6%
COc1ccc(-c2nc(C#N)c(NCc3ccccc3Cl)o2)cc1 | inactive: 3.7%
CCCC(=O)N(Cc1cc2cc(OC)ccc2[nH]c1=O)c1ccccc1OC | inactive: -0.3%
Cn1c(=O)c2c(nc(N3CCCCC3)n2CC(O)COc2ccccc2)n(C)c1=O (stereo unspecified) | inconclusive: 25.6%

SMILES | inhibition
CC(C)c1nc2sc3c(SCCN(C)C)ncnc3c2c2c1CCC2 | inconclusive: 10.2%
CCOc1ccc(CCN2C(=S)N([C@@H](Cc3ccc(O)cc3)CN3CCC[C@@H]3CN3C(=S)NC[C@@H]3Cc3ccccc3)C[C@@H]2Cc2ccc(O)cc2)cc1 | inactive: -1.4%
CCOc1cc(/C=N\n2nnnc2N)ccc1O | inactive: -4.3%
CC(C)(C)NC(=O)NC(=O)COC(=O)c1cc(=O)[nH]c2ccccc12 | inconclusive: -15.9%
CCC(=O)NNC(=O)c1cc(COc2cc(Cl)cc(Cl)c2)on1 | inconclusive: 10%
Cc1ccc2c(c1)[nH]c1c(=O)n(CCCN3CCOCC3)cnc12 | inactive: -2.2%
COc1ccccc1Oc1nc2ccccn2c(=O)c1/C=C(\C#N)C(=O)Nc1c(C)n(C)n(-c2ccccc2)c1=O | inconclusive: -22.5%
Cc1ccc2oc(C(=O)N(Cc3ccncc3)CC3CCCO3)c(C)c2c1 (stereo unspecified) | inactive: -4.5%
C#CC(=O)CC1(CN(Cc2ccccc2)C(=O)OC(C)(C)C)CCCCC1 | inactive: -2.7%
COc1ccc(Br)cc1CN1CCSCC1 | inconclusive: -27.1%
COc1cc(C(c2c(C)[nH][nH]c2=O)c2c(C)[nH][nH]c2=O)cc(Br)c1OC | inconclusive: -4.7%
CCOC(=O)CC(C(=O)OCC)P(=O)(c1ccccc1)c1ccccc1 (stereo unspecified) | inactive: -4.9%
C[C@H](CO)N1C[C@H](C)[C@@H](CN(C)S(=O)(=O)c2cccc(C#N)c2)OCc2cn(nn2)CCCC1=O | inactive: -6.1%
COC(=O)c1ccc(NC(=O)CNC(=O)c2sc3ccccc3c2Cl)cc1 | inconclusive: -19.1%
C=CCC1(Cl)C(=O)C(Cl)=C(N2CCN(C)CC2)C1(OC)OC (stereo unspecified) | inconclusive: 21.3%
CC(=O)NC(c1ccco1)c1cc(Cl)c2ccc(Cl)nc2c1O (stereo unspecified) | inactive: -11.8%
Nc1ccc(C(=O)OCC(=O)NC2CCCc3ccccc32)cc1[N+](=O)[O-] (stereo unspecified) | inconclusive: -10.6%
O=C(N/N=C/c1ccc(O)c(O)c1)c1cc(-c2ccccc2)nc2ccccc12 | inconclusive: 1.7%
CCOC(=O)C1CC(C)=C(C)CC1C(=O)O (stereo unspecified) | inconclusive: 3.5%
O=C(O)CCC(=O)N1CCN(c2ncccc2C(F)(F)F)CC1 | inconclusive: -73.1%
CCC(C)(C(=O)NC1CCCCC1)N(C(=O)CNC(C)=O)c1c(C)n(C)n(-c2ccccc2)c1=O (stereo unspecified) | inactive: -5.5%
CC(=O)Nc1cccc(NC(=O)CCN2C(=O)c3ccccc3S2(=O)=O)c1 | inconclusive: -9.9%
CCC(=O)Nc1ccc(NCc2ccc(-c3ccccc3)cc2)cc1 | inconclusive: -29.6%

SMILES | inhibition
CSc1ccc(/C=C/C(=O)N2CCCN(C)CC2)cc1 | inactive: -2.6%
CC(=O)Nc1ccc(S(=O)(=O)NCCC(=O)OCCN2C(=O)c3ccccc3C2=O)cc1 | inactive: 6%
O=C(CCS(=O)(=O)c1ccc(Cl)cc1)Nc1nnc(-c2ccco2)o1 | inconclusive: -2.4%
COc1ccc(/C=C2/CCCC(C(=O)C(F)(F)F)=C2O)cc1OC | inconclusive: 5.4%
CC1=C(C(=O)Nc2ccc(C(=O)NCCCN3CCCCC3C)cc2)SCCO1 (stereo unspecified) | inactive: -9.4%
COc1ccccc1CN1CCCC(CN(CCN(C)C)C(=O)c2ccc(C)cc2)C1 (stereo unspecified) | inconclusive: -17.8%
Cc1cc(C)n2cc(CSc3nc4cc(Cl)ccc4o3)nc2n1 | inactive: -8.9%
O=C(O)CSCC(=O)N(c1ccccc1)c1ccccc1 | inconclusive: -47.1%
O=C(COC(=O)CCN1C(=O)C2CC=CCC2C1=O)Nc1ccc(Cl)cc1F (stereo unspecified) | inactive: 5%
N#Cc1cc(Oc2ccccc2)c(-n2nnc3ccccc32)cc1C#N | inactive: 8.6%
CCCCS(=O)(=O)N1CCCC(C(=O)Oc2ccccc2)C1 (stereo unspecified) | inconclusive: 23.2%
Cc1ccc(S(C)(=O)=N/C=C2\C(=O)c3sccc3N(C)S2(=O)=O)cc1 (stereo unspecified) | inconclusive: -30.5%
CC1CC(C)CN(CC(=O)c2c[nH]c3ccccc23)C1 (stereo unspecified) | active: 35.7%
CC(C)CCN1CCN(CCCc2ccccc2)CC1CCO (stereo unspecified) | inconclusive: 8.3%
N#Cc1c(-c2cccnc2)c2c([nH]c1=O)-c1ccccc1OC2 | inconclusive: 12.4%
CCCCc1nnc(NC(=O)c2ccc3c(=O)n4c(nc3c2)CCC4)s1 | inactive: -2.4%
COc1cccc(/C=C2\SC(=S)N(CCC(=O)Nc3ccc(O)cc3)C2=O)c1 | inconclusive: -4%
CC(=O)NCCc1ccc(S(=O)(=O)N2CCOCC2)cc1 | inconclusive: 6.7%
CCCCN(C(=O)Cc1coc2cc(C)c(C)cc12)c1c(N)n(Cc2ccccc2)c(=O)[nH]c1=O | inconclusive: 10.7%
Cc1noc(C)c1S(=O)(=O)NC(=O)C1(C)CCN1C(=O)Cc1ccc(-c2ccccc2)cc1 (stereo unspecified) | inactive: -2.3%
O=C(C1CCCCC1)N(Cc1nc2sc3c(c2c(=O)[nH]1)CCCC3)Cc1cccs1 | inconclusive: -29.5%
CCCOC(=O)CSC1=C(C#N)C(c2ccccc2Cl)CC(=O)N1 (stereo unspecified) | inactive: -8.1%
CC(NCC(O)COc1ccccc1)C1COc2ccccc2O1 (stereo unspecified) | inconclusive: -19.7%

Four entries from above, field by field.
CCC(=O)Nc1ccc(NCc2ccc(-c3ccccc3)cc2)cc1
  inhibition: inconclusive: -29.6%
CSc1ccc(/C=C/C(=O)N2CCCN(C)CC2)cc1
  inhibition: inactive: -2.6%
CC(=O)Nc1ccc(S(=O)(=O)NCCC(=O)OCCN2C(=O)c3ccccc3C2=O)cc1
  inhibition: inactive: 6%
O=C(CCS(=O)(=O)c1ccc(Cl)cc1)Nc1nnc(-c2ccco2)o1
  inhibition: inconclusive: -2.4%

Further entries.

SMILES | inhibition
COc1ccc2c(c1)CCc1c-2n[nH]c1C(=O)O | inactive: -1.9%
COC(=O)c1cnc2c(c(C)nn2C)c1OC | inconclusive: 66.5%
Nc1c(C(=O)N2CCOCC2)sc2nc(N3CCOCC3)c3c(c12)CCCC3 | inconclusive: -116%
CCOc1ccc(-n2c(C)nc3cc(C(=O)NCC4CCCO4)ccc32)cc1 (stereo unspecified) | inactive: 2.1%
O=C(c1ccc(Cl)nc1)N1CCN(S(=O)(=O)c2ccc3c(c2)OCCO3)CC1 | inconclusive: -3.6%
COc1cc(C(=O)NCC(C)C)cc(OC)c1OC | inactive: -0.8%
COc1ccccc1-c1noc(CCC(=O)Nc2cc(C(F)(F)F)ccc2Cl)n1 | inconclusive: -5%
CCN(C(=O)c1ccc(C)c(Br)c1)c1ccccc1 | active: 60.1%
COC(=O)c1ccc(NC(=O)c2cccc(C)c2)cc1 | inconclusive: -20.4%
O=C(COC(=O)C1(c2ccccc2F)CCCC1)N1CCOCC1 | inconclusive: 22.2%
CCCCC(=O)N(CCC)CCC | inconclusive: 16.6%
CN1N=C(C(C)(C)C)CSC1=Nc1ccc(F)cc1 | inconclusive: -137%
Cc1cc(C)n(-c2nc3c(c(=O)[nH]c(=O)n3C)n2CC(O)c2ccccc2)n1 (stereo unspecified) | inconclusive: -21.3%
NC(N)=NS(=O)(=O)c1ccc(N=C2C(=O)Nc3ccccc32)cc1 | inconclusive: 11.2%
O=C(C[n+]1ccc(/C=N/O)cc1)N1CCCCC1 | inconclusive: 40.7%
COc1cc(CNc2ccc(N3CCOCC3)cc2)ccc1OCC(=O)NC(C)(C)C | inconclusive: -37.9%
CCOC(=O)N1CCN(C(=O)Nc2ccc3nc(C)sc3c2)CC1 | inconclusive: 24.1%
CN1CCN(Cc2c(F)cccc2Cl)CC1 | inconclusive: -16.7%
COc1cc(C)c(NC(=S)Nc2cccc(Cl)c2C)cc1OC | inactive: 1.5%
O=C1C(Cc2ccc3[nH]ccc3c2)NC(=S)N1c1ccccc1 (stereo unspecified) | inconclusive: 24.9%
CC(=O)c1ccc(NC(=O)Cc2cccs2)cc1 | inconclusive: 2%
CCCC(=O)N1CCCC1(C)C(=O)Nc1ccc(OC(F)F)cc1 (stereo unspecified) | inactive: -3.2%
